PubChem BioAssay AID192 (DTP/NCI, 2004)
The list is a part of this screen's results and no random one: it is rich in T/C values a quarter to a half above the control, in often repeated tests (any T/C) and in doses without a T/C. Other doses and runs of a compound stand elsewhere. T/C: endpoint of the treated group in % of that of the vehicle group. Some doses have a count of surviving animals in place of a T/C: the source holds a T/C of zero for them, seemingly a mark for toxic or unscored doses. Some survivor counts are full or nearly so, which does not show that the dose was tolerated: survival well below the control is almost never listed, so the zero probably covers shortened survival too. Survivors were counted at the toxicity check, usually on the fifth day, unless a day is given; later deaths do not show. Schedules are NCI's codes, taken here to give the interval after Q, in days (D) or hours (H), and the number of doses after X. Some schedules carry Z or #; the key to these is not given. Where survival is the endpoint, this PubChem deposit counts one and a half times the control or more as active, and values a quarter to a half above the control carry no call in these data; other NCI protocols may use other cut-offs. Some entries were tested several times; the results are listed from low to high.

Test system: BDF1 mice, B16 melanoma ip, median survival T/C
Assay: NCI In Vivo Anticancer Drug Screen. Data for tumor model B16 Melanoma (intraperitoneal) in B6D2F1 (BDF1) mice
Details: T/C endpoint: median survival time, higher T/C = longer survival
How it was run: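 Transplantable tumor model; survival or tumor size measured; reported as T/C, treated over vehicle control.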

[1] = dose: 100.0 mg/kg/injection, schedule: Q01DX009 (ip), vehicle: Klucel (hydroxypropylcellulose) (HPC)
[2] = dose: 200.0 mg/kg/injection, schedule: Q01DX009 (ip), vehicle: Klucel (hydroxypropylcellulose) (HPC)
[3] = dose: 400.0 mg/kg/injection, schedule: Q01DX009 (ip), vehicle: Klucel (hydroxypropylcellulose) (HPC)
[4] = dose: 100.0 mg/kg/injection, schedule: Q01DX009 (ip), vehicle: saline with Tween-80
[5] = dose: 200.0 mg/kg/injection, schedule: Q04DX003 (ip), vehicle: saline with Tween-80
[6] = dose: 50.0 mg/kg/injection, schedule: Q01DX009 (ip), vehicle: saline
[7] = dose: 100.0 mg/kg/injection, schedule: Q01DX009 (ip), vehicle: saline
[8] = dose: 400.0 mg/kg/injection, schedule: Q01DX009 (ip), vehicle: saline
[9] = dose: 6.25 mg/kg/injection, schedule: Q01DX009 (ip), vehicle: Klucel (hydroxypropylcellulose) (HPC)

## O=C1OC(c2ccc([N+](=O)[O-])cc2)=N/C1=C\c1ccc(Cl)cc1
[1]
  survivor count: 10 of 10
[2]
  survivor count: 10 of 10
[3]
  survivor count: 10 of 10

## Cc1cccc(NC(=O)Nc2ccccc2Cl)c1C
[1]
  survivor count: 10 of 10
[2]
  survivor count: 10 of 10
[3]
  survivor count: 10 of 10

## Cc1cccc(C)c1N.[C-]#[O+].[C-]#[O+].[C-]#[O+].[Cr]
dose: 50.0 mg/kg/injection, schedule: Q01DX009 (ip), vehicle: Klucel (hydroxypropylcellulose) (HPC)
  survivor count: 10 of 10
[1]
  survivor count: 7 of 10

## CCCCN(CCCC)CCCC#N
dose: 300.0 mg/kg/injection, schedule: Q01DX009 (ip), vehicle: saline
  survivor count: 6 of 10

## OC1CCCC2CCCNC12 (centres undefined)
[4]
  survivor count: 6 of 10

## O=C(O)/C=C/C(=O)NCc1ccco1
[3]
  survivor count: 10 of 10

## CC(C)C1=CC2=CCC3C(C)(C(N)=O)CCCC3(C)C2CC1CC#N (centres undefined)
[5]
  survivor count: 10 of 10

## O=C(Nc1ccc(NC2=NCCN2)cc1)c1cccc(C(=O)Nc2ccc(NC3=NCCN3)cc2)c1
dose: 30.0 mg/kg/injection, schedule: Q01DX009 (ip), vehicle: saline with Tween-80
  survivor count: 8 of 10

## CCN(CC)CCCC(C)NCCCCNC(C)CCCN(CC)CC (centres undefined)
dose: 3.13 mg/kg/injection, schedule: Q01DX009 (ip), vehicle: water
  T/C: 125 % of control
dose: 6.25 mg/kg/injection, schedule: Q01DX009 (ip), vehicle: water
  T/C: 133 % of control
dose: 12.5 mg/kg/injection, schedule: Q01DX009 (ip), vehicle: water
  T/C: 125 % of control
dose: 18.75 mg/kg/injection, schedule: Q01DX009 (ip), vehicle: alcohol
  survivor count: 10 of 10
dose: 25.0 mg/kg/injection, schedule: Q01DX009 (ip), vehicle: alcohol
  survivor count: 10 of 10
dose: 37.5 mg/kg/injection, schedule: Q01DX009 (ip), vehicle: alcohol
  survivor count: 8 of 10
dose: 37.5 mg/kg/injection, schedule: Q01DX009 (ip), vehicle: water
  survivor count: 5 of 10
dose: 50.0 mg/kg/injection, schedule: Q01DX009 (ip), vehicle: alcohol
  survivor count: 1 of 10
dose: 50.0 mg/kg/injection, schedule: Q01DX009 (ip), vehicle: water
  survivor count: 3 of 10

## CCCCCCCCCCCC(N)c1ccccc1 (centres undefined)
[6]
  survivor count: 0 of 6
dose: 75.0 mg/kg/injection, schedule: Q01DX009 (ip), vehicle: saline
  survivor count: 0 of 6
dose: 115.0 mg/kg/injection, schedule: Q01DX009 (ip), vehicle: saline
  survivor count: 0 of 6
dose: 170.0 mg/kg/injection, schedule: Q01DX009 (ip), vehicle: saline
  survivor count: 0 of 6

## CC(=O)N(C)O
dose: 400.0 mg/kg/injection, schedule: Q01DX009 (ip), vehicle: saline with Tween-80
  survivor count: 5 of 10

## CNC1=C(N2CC2C)C(=O)C(NC)=C(N2CC2C)C1=O (centres undefined)
dose: 2.5 mg/kg/injection, schedule: Q01DX009 (ip), vehicle: saline
  T/C: 126 % of control
dose: 5.0 mg/kg/injection, schedule: Q01DX009 (ip), vehicle: saline
  T/C: 148 % of control
dose: 10.0 mg/kg/injection, schedule: Q01DX009 (ip), vehicle: saline
  survivor count: 6 of 6

## CN(C)c1ncnc2c1ncn2C1OC(CO)C(N)C1O (centres undefined)
[7]
  survivor count: 9 of 10

## CN1CCC2(CC1)SSC1(CCN(C)CC1)S2
[6]
  T/C: 133 % of control
dose: 400.0 mg/kg/injection, schedule: Q04DX003 (ip), vehicle: saline
  survivor count: 5 of 10

## O=C(O)C(O)C(O)C1[O][Sb][O]C1CO (centres undefined)
[8]
  survivor count: 1 of 10

## CCCCCCCCCC(=O)CCCC
dose: 400.0 mg/kg/injection, schedule: Q01DX009 (ip), vehicle: other
  survivor count: 7 of 10

## Cc1c2ccccc2c(C)c2c1ccc1ccccc12
dose: 8.0 mg/kg/injection, schedule: Q01DX009 (ip), vehicle: saline with Tween-80
  T/C: 128 % of control
dose: 32.0 mg/kg/injection, schedule: Q01DX009 (ip), vehicle: saline with Tween-80
  survivor count: 10 of 10
dose: 64.0 mg/kg/injection, schedule: Q01DX009 (ip), vehicle: saline with Tween-80
  survivor count: 10 of 10

## CCCCC[C@H](O)/C=C/[C@@H]1[C@@H](C/C=C\CCCC(=O)O)[C@@H](O)C[C@H]1O
dose: 0.5 mg/kg/injection, schedule: Q#A X020 (ip), vehicle: saline with Tween-80
  survivor count: 10 of 10

## ClC(Cl)=C(Cl)Cl
dose: 200.0 mg/kg/injection, schedule: Q01DX009 (ip), vehicle: saline with Tween-80
  survivor count: 10 of 10
dose: 800.0 mg/kg/injection, schedule: Q01DX009 (ip), vehicle: Klucel (hydroxypropylcellulose) (HPC)
  survivor count: 1 of 9

## COc1ccc2c(c1)C13CCCCC1C(C2)N(CC1(c2ccccc2)CC1)CC3 (centres undefined)
[9]
  T/C: 128 % of control
  survivor count: 10 of 10
[1]
  survivor count: 10 of 10
[2]
  survivor count: 10 of 10

## NCC(=O)NC(CCCN=C(N)N)C(=O)O (centres undefined)
[8]
  survivor count: 10 of 10

## CC1(C)N=C(N)N=C(N)N1c1ccc(CCCCc2ccc(S(=O)(=O)F)cc2Cl)c(Cl)c1
dose: 6.25 mg/kg/injection, schedule: Q01DX009 (ip), vehicle: saline with Tween-80
  T/C: 147 % of control
dose: 6.25 mg/kg/injection, schedule: Q01DX009 (ip), vehicle: saline
  T/C: 131 % of control
dose: 12.5 mg/kg/injection, schedule: Q01DX009 (ip), vehicle: saline with Tween-80
  T/C: 137 % of control
dose: 12.5 mg/kg/injection, schedule: Q01DX009 (ip), vehicle: saline
  T/C: 136 % of control
dose: 25.0 mg/kg/injection, schedule: Q01DX009 (ip), vehicle: saline with Tween-80
  T/C: 138 % of control
dose: 37.5 mg/kg/injection, schedule: Q04DX003 (ip), vehicle: saline
  T/C: 142 % of control
dose: 50.0 mg/kg/injection, schedule: Q01DX009 (ip), vehicle: saline with Tween-80
  survivor count: 6 of 6
dose: 75.0 mg/kg/injection, schedule: Q04DX003 (ip), vehicle: saline
  T/C: 148 % of control
[4]
  survivor count: 6 of 6
[5]
  survivor count: 6 of 6
dose: 300.0 mg/kg/injection, schedule: Q04DX003 (ip), vehicle: saline with Tween-80
  survivor count: 6 of 6
dose: 450.0 mg/kg/injection, schedule: Q04DX003 (ip), vehicle: saline with Tween-80
  survivor count: 5 of 6

## COC12C(COC(N)=O)C3=C(C(=O)C(C)=C(N)C3=O)N1CC1C2N1C (centres undefined)
dose: 8.0 mg/kg/injection, schedule: Q01DX009 (ip), vehicle: Klucel (hydroxypropylcellulose) (HPC)
  T/C: 134 % of control
dose: 16.0 mg/kg/injection, schedule: Q01DX009 (ip), vehicle: Klucel (hydroxypropylcellulose) (HPC)
  survivor count: 5 of 6

## CCC1OCCN1C(C)C (centres undefined)
[7]
  survivor count: 10 of 10
dose: 200.0 mg/kg/injection, schedule: Q01DX009 (ip), vehicle: saline
  survivor count: 10 of 10

## COC(=O)[C@@]12OC[C@]34[C@H]([C@@H](O)[C@@H]1O)[C@@]1(C)CC(=O)C(O)=C(C)[C@@H]1C[C@H]3OC(=O)[C@H](OC(=O)/C=C(\C)C(C)C)[C@@H]24
dose: 0.06 mg/kg/injection, schedule: Q01DX009 (ip), vehicle: saline + alcohol
  T/C: 132 and 138 % of control
dose: 0.12 mg/kg/injection, schedule: Q01DX009 (ip), vehicle: saline + alcohol
  T/C: 147 % of control
dose: 0.25 mg/kg/injection, schedule: Q01DX009 (ip), vehicle: saline + alcohol
  T/C: 148 % of control
dose: 2.0 mg/kg/injection, schedule: Q01DX009 (ip), vehicle: other
  survivor count: 7 of 10
dose: 2.0 mg/kg/injection, schedule: Q01DX009 (ip), vehicle: saline + alcohol
  survivor count: 6 of 10
dose: 4.0 mg/kg/injection, schedule: Q01DX009 (ip), vehicle: other
  survivor count: 0 of 10
dose: 63.0 micrograms/kg/injection, schedule: Q01DX009 (ip), vehicle: saline + alcohol
  T/C: 145 % of control
